# Measurements published in the supplement of paper PMC4683952.
# The other results are listed elsewhere or left out. No rule for the calls is given here. Single values are uncertain here, since repeats match poorly.
# System: Lgr5 (MarsCy1-Lgr5-EGFP, U2OS)
# Experiment: cell-surface Lgr5 expression (SCi1 fluorescence, background-subtracted) relative to WT DMSO (fold of DMSO control); higher = more Lgr5 at the plasma membrane
# Conditions: U2OS MarsCy1-Lgr5-EGFP stable; treatment time: overnight; library: Kinase Gold; 20 µM
# Description: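 U2OS cells stably expressing MarsCy1-Lgr5-EGFP in 384-well plates were incubated overnight with single-dose compounds. Cell-surface Lgr5 was stained with SCi1 and scanned at 700 nm on a LI-COR Odyssey. Intensity was background-subtracted (parental U2OS) and expressed relative to WT DMSO wells.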
row,Structure (SMILES),cell-surface Lgr5 expression
1,COc1ccc(N=Cc2c(O)n(-c3ccccc3)c(=O)[nH]c2=O)cc1,inactive: 0.629
2,O=C1C=Cc2ccccc2/C1=C\c1c(O)[nH]c(=S)[nH]c1=O,inactive: 0.948
